The nature of this series: physchem. The conditions noted are these: buffer, pH 1.6.

≈ marks a conversion by molar mass, not a printed value.

With `CCN1CCN(Cc2ccc3cc(C(=O)Nc4cc(NC(=O)c5ccc6c(c5)OCCO6)ccc4F)ccc3n2)CC1`, the thermodynamic solubility at 4 h is 920 µg/mL (≈ 1620 µM).

These data come from ChEMBL document CHEMBL5352500, “HSF1 Pathway Inhibitor Clinical Candidate (CCT361814/NXP800) Developed from a Phenotypic Screen as a Potential Treatment for Refractory Ovarian Cancer and Other Malignancies” (J Med Chem, 2023).
